Reference: PMC3846774
No constants are given. Whether binding was seen depends on the method and setting. Some entries that bind do so weakly or less than the wild type. Sequences can lack the tags named with a protein.

T1: Rix1-TAP (S. cerevisiae) (UniProt P38883)
T1 sequence: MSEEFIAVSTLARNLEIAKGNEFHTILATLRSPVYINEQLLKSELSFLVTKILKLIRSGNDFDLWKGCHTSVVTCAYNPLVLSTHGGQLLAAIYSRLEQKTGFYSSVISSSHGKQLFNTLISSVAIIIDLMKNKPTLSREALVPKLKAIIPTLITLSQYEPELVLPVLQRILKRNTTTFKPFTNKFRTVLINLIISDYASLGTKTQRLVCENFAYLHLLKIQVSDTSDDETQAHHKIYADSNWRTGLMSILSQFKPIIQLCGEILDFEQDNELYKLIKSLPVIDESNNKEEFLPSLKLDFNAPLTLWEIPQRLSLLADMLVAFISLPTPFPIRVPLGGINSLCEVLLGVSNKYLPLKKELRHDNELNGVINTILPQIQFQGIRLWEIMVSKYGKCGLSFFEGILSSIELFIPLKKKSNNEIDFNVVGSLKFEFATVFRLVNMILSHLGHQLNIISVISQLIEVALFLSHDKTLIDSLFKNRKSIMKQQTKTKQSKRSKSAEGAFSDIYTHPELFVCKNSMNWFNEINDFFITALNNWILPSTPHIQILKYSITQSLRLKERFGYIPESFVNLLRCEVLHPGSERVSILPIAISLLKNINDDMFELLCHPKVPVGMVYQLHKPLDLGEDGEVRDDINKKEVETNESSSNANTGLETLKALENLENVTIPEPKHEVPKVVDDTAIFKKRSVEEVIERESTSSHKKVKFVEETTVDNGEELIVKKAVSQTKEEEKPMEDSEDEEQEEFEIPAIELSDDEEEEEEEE

T2: Nsa1-TAP (S. cerevisiae) (UniProt P53136)
T2 sequence: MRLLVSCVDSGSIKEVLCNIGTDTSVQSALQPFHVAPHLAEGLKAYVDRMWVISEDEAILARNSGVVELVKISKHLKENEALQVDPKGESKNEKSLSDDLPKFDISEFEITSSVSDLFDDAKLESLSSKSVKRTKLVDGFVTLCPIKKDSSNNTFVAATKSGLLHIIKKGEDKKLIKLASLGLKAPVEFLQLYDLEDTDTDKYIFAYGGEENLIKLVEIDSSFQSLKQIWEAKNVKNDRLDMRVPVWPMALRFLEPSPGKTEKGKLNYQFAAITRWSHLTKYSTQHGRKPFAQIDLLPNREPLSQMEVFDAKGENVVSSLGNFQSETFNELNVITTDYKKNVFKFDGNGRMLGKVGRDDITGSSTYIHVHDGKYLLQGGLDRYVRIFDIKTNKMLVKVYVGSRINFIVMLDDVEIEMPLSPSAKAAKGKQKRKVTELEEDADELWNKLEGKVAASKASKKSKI

T3: Arx1-TAP (S. cerevisiae) (UniProt Q03862)
T3 sequence: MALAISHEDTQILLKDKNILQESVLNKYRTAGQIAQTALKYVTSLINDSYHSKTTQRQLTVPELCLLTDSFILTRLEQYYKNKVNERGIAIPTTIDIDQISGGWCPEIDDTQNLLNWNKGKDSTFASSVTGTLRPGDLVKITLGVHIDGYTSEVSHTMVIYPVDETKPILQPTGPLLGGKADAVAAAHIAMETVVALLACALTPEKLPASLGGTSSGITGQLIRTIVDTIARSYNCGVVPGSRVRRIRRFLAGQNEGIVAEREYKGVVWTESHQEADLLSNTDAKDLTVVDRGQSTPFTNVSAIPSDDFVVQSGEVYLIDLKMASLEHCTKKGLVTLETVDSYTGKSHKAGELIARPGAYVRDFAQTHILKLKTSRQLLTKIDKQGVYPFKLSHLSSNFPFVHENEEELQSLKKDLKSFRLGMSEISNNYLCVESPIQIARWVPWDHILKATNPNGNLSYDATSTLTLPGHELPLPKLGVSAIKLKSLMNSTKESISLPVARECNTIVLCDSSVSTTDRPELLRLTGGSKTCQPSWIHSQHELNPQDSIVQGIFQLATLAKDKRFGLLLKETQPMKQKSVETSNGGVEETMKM

T4: Ssf1-TAP (S. cerevisiae) (UniProt P38789)
T4 sequence: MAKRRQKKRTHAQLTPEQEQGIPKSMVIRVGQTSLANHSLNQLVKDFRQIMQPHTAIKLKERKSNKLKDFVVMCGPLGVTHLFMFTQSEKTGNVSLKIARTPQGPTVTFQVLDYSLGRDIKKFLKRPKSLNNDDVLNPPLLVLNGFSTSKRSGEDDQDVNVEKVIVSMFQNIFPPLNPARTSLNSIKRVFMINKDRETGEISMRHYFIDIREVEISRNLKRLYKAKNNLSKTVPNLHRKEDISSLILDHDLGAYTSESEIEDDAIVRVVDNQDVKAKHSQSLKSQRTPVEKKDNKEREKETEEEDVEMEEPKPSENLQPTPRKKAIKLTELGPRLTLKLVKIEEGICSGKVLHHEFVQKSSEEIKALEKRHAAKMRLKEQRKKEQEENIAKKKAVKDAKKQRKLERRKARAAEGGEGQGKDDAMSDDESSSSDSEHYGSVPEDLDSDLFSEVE

T5: Lsg1-TAP (S. cerevisiae) (UniProt P53145)
T5 sequence: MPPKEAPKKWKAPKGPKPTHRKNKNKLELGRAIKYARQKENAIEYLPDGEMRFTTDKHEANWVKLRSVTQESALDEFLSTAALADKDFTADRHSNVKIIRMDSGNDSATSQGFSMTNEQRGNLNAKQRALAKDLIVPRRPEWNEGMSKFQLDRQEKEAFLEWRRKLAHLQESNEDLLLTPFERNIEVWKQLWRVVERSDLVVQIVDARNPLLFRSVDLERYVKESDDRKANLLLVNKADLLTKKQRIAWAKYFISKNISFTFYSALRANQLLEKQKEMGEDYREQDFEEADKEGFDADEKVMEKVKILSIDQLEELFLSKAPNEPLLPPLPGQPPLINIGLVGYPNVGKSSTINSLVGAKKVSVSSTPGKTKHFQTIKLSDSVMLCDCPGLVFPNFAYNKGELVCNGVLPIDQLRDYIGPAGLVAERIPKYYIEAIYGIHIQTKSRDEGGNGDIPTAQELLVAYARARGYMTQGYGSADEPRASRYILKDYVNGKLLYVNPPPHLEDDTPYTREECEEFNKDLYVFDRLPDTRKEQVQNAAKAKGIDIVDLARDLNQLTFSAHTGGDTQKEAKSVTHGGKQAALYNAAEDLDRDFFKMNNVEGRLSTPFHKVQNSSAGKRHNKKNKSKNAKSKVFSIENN

T6: Nop7-TAP (S. cerevisiae), P53261
T6 chain: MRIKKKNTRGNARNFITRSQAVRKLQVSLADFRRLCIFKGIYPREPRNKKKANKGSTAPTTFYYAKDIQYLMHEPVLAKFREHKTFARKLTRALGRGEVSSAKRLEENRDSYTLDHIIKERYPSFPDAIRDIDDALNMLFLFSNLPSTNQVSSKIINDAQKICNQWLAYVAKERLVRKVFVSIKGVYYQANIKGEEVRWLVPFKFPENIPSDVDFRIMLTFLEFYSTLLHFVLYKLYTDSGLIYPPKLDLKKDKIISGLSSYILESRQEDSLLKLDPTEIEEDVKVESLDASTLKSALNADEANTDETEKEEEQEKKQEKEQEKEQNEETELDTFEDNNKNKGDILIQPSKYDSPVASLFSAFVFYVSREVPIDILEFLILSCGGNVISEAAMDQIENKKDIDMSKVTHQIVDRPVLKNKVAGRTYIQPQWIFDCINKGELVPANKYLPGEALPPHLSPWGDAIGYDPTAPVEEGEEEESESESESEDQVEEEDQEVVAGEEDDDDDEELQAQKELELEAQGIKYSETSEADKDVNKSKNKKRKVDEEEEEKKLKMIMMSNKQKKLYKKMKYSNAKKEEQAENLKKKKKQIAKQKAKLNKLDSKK

B1: Mak5-GFP (protein, UniProt P38112 1-773)
chain: MGKKRAPQKGKTVTKPQEIIVDESKLNWKPVDIPDTLDDFGGFYGLEEIDGVDVKVVDGKVTFVTKKDSKVLKDSNKEKVGDDQESVENESGSDSESELLEFKNLDDIKEGELSAASYSSSDEDEQGNIESSKLTDPSEDVDEDVDEDVLKENVFNKDINIDDISPVNLPEWTNLAPLSMTILQSLQNLNFLRPTEIQKKSIPVIMQGVDVMGKASTGSGKTLAYGIPIVEKLISNFSQKNKKPISLIFTPTRELAHQVTDHLKKICEPVLAKSQYSILSLTGGLSIQKQQRLLKYDNSGQIVIATPGRFLELLEKDNTLIKRFSKVNTLILDEADRLLQDGHFDEFEKIIKHLLVERRKNRENSEGSSKIWQTLIFSATFSIDLFDKLSSSRQVKDRRFKNNEDELNAVIQHLMSKIHFNSKPVIIDTNPESKVSSQIKESLIECPPLERDLYCYYFLTMFPGTTLIFCNAIDSVKKLTVYLNNLGIPAFQIHSSMTQKNRLKSLERFKQQSAKQKTINHSNPDSVQLSTVLIASDVAARGLDIPGVQHVIHYHLPRSTDIYIHRSGRTARAGSEGVSAMICSPQESMGPLRKLRKTLATKNSVSTDLNSRSTNRKPIKWQNTVPLLPIETDILSQLRERSRLAGELADHEIASNSLRKDDNWLKKAADELGIDVDSDEDDISKSNSDTFLLKNKNKKMQKTINKDKVKAMRATLNELLSVPIRKDRRQKYLTGGLVNLADNLVKKRGHNSIIGHEKTNALETLKKKKKRNN
B2: Ebp2 (protein, UniProt P36049 1-427)
chain: MAKGFKLKELLSHQKEIEKAEKLENDLKKKKSQELKKEEPTIVTASNLKKLEKKEKKADVKKEVAADTEEYQSQALSKKEKRKLKKELKKMQEQDATEAQKHMSGDEDESGDDREEEEEEEEEEEGRLDLEKLAKSDSESEDDSESENDSEEDEDVVAKEESEEKEEQEEEQDVPLSDVEFDSDADVVPHHKLTVNNTKAMKHALERVQLPWKKHSFQEHQSVTSETNTDEHIKDIYDDTERELAFYKQSLDAVLVARDELKRLKVPFKRPLDYFAEMVKSDEHMDKIKGKLIEEASDKKAREEARRQRQLKKFGKQVQNATLQKRQLEKRETLEKIKSLKNKRKHNEIDHSEFNVGVEEEVEGKRFDRGRPNGKRAAKNAKYGQGGMKRFKRKNDATSSADVSGFSSRKMKGKTNRPGKSRRARRF
B3: Mak5-GFP, P38112 1-773 (protein)
chain: B1 chain

Columns and labels:
Experiment in all cases: tandem affinity purification (TAP) with Western blotting; TAP-tagged bait purified from yeast cells expressing Mak5-GFP; 50 mM Tris-HCl pH 7.5, 100 mM NaCl, 1.5 mM MgCl2, 5% glycerol, 0.1% NP-40; TEV cleavage, elution from Calmodulin-Sepharose with 5 mM EGTA; eluates blotted with anti-GFP, anti-Nop7, anti-Ebp2, anti-Rpl3
Rix1-TAP (S. cerevisiae) = target: T1, Rix1-TAP (S. cerevisiae)
Nsa1-TAP (S. cerevisiae) = target: T2, Nsa1-TAP (S. cerevisiae)
Arx1-TAP (S. cerevisiae) = target: T3, Arx1-TAP (S. cerevisiae)
Ssf1-TAP (S. cerevisiae) = target: T4, Ssf1-TAP (S. cerevisiae)
Lsg1-TAP (S. cerevisiae) = target: T5, Lsg1-TAP (S. cerevisiae)
[1] = target: T6, Nop7-TAP (S. cerevisiae), P53261; conditions: remark: other sources report otherwise

Row | Binder | binding (Rix1-TAP (S. cerevisiae)) | binding (Nsa1-TAP (S. cerevisiae)) | binding (Arx1-TAP (S. cerevisiae)) | binding (Ssf1-TAP (S. cerevisiae)) | binding (Lsg1-TAP (S. cerevisiae)) | binding [1]
1 | B1 | no binding | binds weakly | no binding | binds weakly | no binding | 
2 | B2 | no binding | binds |  |  |  | 
3 | B3 |  |  |  |  |  | no binding
